# Measurements: PubChem BioAssay AID2417 (National Center for Advancing Translational Sciences (NCATS), 2010)
# Where “and” joins values, the source holds several entries; their conditions need not be identical. Identical values can stand only once. Among all 140,000 compounds or so, about 4,300 (3.1%) were called active. This list was built around the results that the source calls inconclusive (neither active nor inactive); the mix of calls is not that of the screen.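 Rule for the calls: active = readout at or below -70, meaning at least 70% loss of cells showing the perinucleolar compartment, a nuclear body marking cancer cells; inconclusive = readout between -30 and a set limit; inactive = the rest.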
# Assay: High Content Assay for Compounds that inhibit the Assembly of the Perinucleolar Compartment;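 note: plate controls were DMSO wells for no effect and camptothecin positive control wells for full effect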
# Settings: PC3M PTB-GFP, PNC prevalence imaging, 16 h; at 10 µM; active compounds read low
# Procedure, shortened: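 Read-out is percentage of cells bearing a perinucleolar compartment, from automated 20x imaging of fixed, Hoechst-stained PC3M PTB-GFP cells. Cells were seeded 4 h, then exposed 16 h to compound (23 nl of library stock) in duplicate plates.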
row,Structure (SMILES),"activity change (PNC), negative = inhibition"
1,Cc1cccc(OCC(=O)N2CCOCC2)c1,inactive: 40.4%
2,FC(F)(F)c1ccc(N2CCN(c3ncnc4c3nnn4Cc3ccccc3)CC2)nc1,inconclusive: -32.4%
3,Oc1ccc(C(=S)N2CCCCC2)cc1,inconclusive: -73.8%
4,CCc1nnc(SCC(=O)NC2CCCC2)nc1CC,inactive: -23.9%
5,Cc1cc(NC(=O)c2c(-c3ccccc3Cl)noc2C)no1,inactive: 46.8%
6,COc1ccc(CCN2C(=O)C3C4C=CC(C3C2=O)C2C(=O)N(CCc3ccc(OC)c(OC)c3)C(=O)C42)cc1OC (stereo not given),inactive: -15%
7,O=c1oc2ccccc2c2c1nc(C(F)(F)F)n2-c1ccccc1,inconclusive: -71.7%
8,O=[N+]([O-])c1ccc(O)c(/C=N/Nc2nc3ccccc3[nH]2)c1,active: -92.8%
9,CCC(=O)Nc1ccc(Nc2ccccc2)cc1,inconclusive: -57.8%
10,CCCCCCCCCCCNC(=O)c1ccoc1C,inconclusive: -54%
11,COC(=O)c1c(NC(=O)Cn2nc(C(F)F)cc2C(F)F)sc(C)c1C,inconclusive: -49.2%
12,Cc1ccccc1-c1nnc(-c2ccc(Cl)cc2)o1,inactive: 68.3%
13,Cn1ncc(N=Cc2ccccc2)c1C(=O)Nc1cccc(Cl)c1,inconclusive: -37.7%
14,O=C(O)c1ccc(Cl)c2c1C1C=CCC1C(c1ccccn1)N2 (stereo not given),inconclusive: -38.5%
15,COc1ccc(S(=O)(=O)N(C)c2ccc(OCC(=O)Nc3cc(C)on3)cc2)cc1,active: -97%
16,O=C(CSc1nnc(-c2ccccc2F)n1C1CC1)Nc1cccnc1Cl,inactive: 24.6%
17,CCCC(=O)Nc1ccc(NC(=O)c2ccco2)c(OC)c1,inconclusive: -66.3%
18,CCOc1ccc(N2C(=O)CC(N3CCN(C4CCc5ccccc5C4)CC3)C2=O)cc1 (stereo not given),inconclusive: -63.1%
19,O=C(NC1=NC2CCCCC2N1)c1ccccc1 (stereo not given),inconclusive: -67.9%
20,Cc1ccc(N(C(=O)CCl)C(C(=O)NC2CCCCC2)c2cccnc2)cc1C (stereo not given),inconclusive: -70.3%
21,COc1ccc(C2CC(c3c(O)cc(C)oc3=O)=NCCS2)c(OC)c1 (stereo not given),active: -114%
22,CCCCc1ccc(-c2csc(/C(C#N)=C/c3ccc(C)o3)n2)cc1,inactive: 31.4%
23,O=C(NCc1ccco1)C(c1cccs1)N(Cc1ccccc1)C(=O)Cn1nnc2ccccc21 (stereo not given),inconclusive: -69.7%

row,Structure (SMILES),"activity change (PNC), negative = inhibition"
1,CNC(=O)CN(c1cccc(Br)c1)S(C)(=O)=O,inconclusive: -43%
2,COc1ccc(CNC(=O)[C@H](C)NC(=O)C2CCN(S(=O)(=O)c3ccc(C)cc3)CC2)cc1,inconclusive: -42.5%
3,COc1ccc2cc(C(=O)NC3CCCCC3)c(=O)oc2c1,inconclusive: -36.7%
4,COc1ccc(CNc2nc(SCC(=O)NCc3ccco3)nc3ccccc23)cc1,inconclusive: -31.6%
5,Cc1onc(-c2ccccc2)c1C(=O)Nc1nnc(N2CCCCCC2)s1,active: -108%
6,COCCNC(=O)C(c1cccs1)N(C(=O)Cn1nnc2ccccc21)c1ccccc1 (stereo not given),inconclusive: -30.8%
7,Fc1ccc(F)c(C2=NNC(=Nc3ccccc3F)SC2)c1,inconclusive: -32.4%
8,COCCNC(=O)CSc1nc2ccccc2c2nc(C)nn12,inconclusive: -50.8%
9,O=C(Nc1nc(-c2ccccn2)cs1)c1ccc(Cl)s1,inconclusive: -42.2%
10,CCOC(=O)c1cnc(SCc2ccccc2)nc1N,inconclusive: -56%
11,C/C(=N\O)C(C)NC(=O)c1ccccc1 (stereo not given),inconclusive: -62.3%
12,CC(C)c1ccc(NC(=O)COC(=O)/C=C/c2cccc([N+](=O)[O-])c2)cc1,inconclusive: -38.8%
13,COc1ccc(S(=O)(=O)N2CCN(Cc3cccc(Cl)c3)CC2)cc1,inactive: 22.1%
14,COc1ccccc1OCc1nc(Cc2ccc(Cl)cc2)no1,inconclusive: -42.7%
15,COC(=O)C1=CN(C2CC2)C=C(C(=O)OC)C1c1ccc(C(=O)OC)cc1,inconclusive: -34.9%
16,OC(COCc1ccco1)CN1CCN(c2ccccc2)CC1 (stereo not given),active: -85.3%
17,COCCNC(=O)c1csc2c1CCCC2,inconclusive: -48.9%
18,CC(C)[C@H](NC(=O)c1cccc(S(=O)(=O)N2CCOCC2)c1)C(=O)Nc1nc2ccccc2s1,inconclusive: -31.9%
19,COc1ccc(C2=C(CN(C)C)C(c3ccccc3)c3ccccc3O2)cc1 (stereo not given),inconclusive: -41.8% and inconclusive: -55.6%
20,O=C(COC(=O)CSc1nnc(-c2ccc(Cl)cc2)o1)Nc1cc(Cl)cc(Cl)c1,inconclusive: -34.1%
21,O=C(NCc1ccc2c(c1)OCO2)C1CCCN1C(=O)Nc1ccc(F)cc1 (stereo not given),inactive: -6.73%
22,CCOC(=O)c1nn(-c2ccc(OCC)cc2)c2nc(-c3cccc(OC)c3)c(C#N)c(=O)n12,inconclusive: -36.8%
23,O=C(Nc1nnc(COc2ccccc2)s1)C1CCN(S(=O)(=O)c2ccc(Cl)cc2)CC1,inconclusive: -53.3%

row,Structure (SMILES),"activity change (PNC), negative = inhibition"
1,CCOC(=O)c1c(NC(=O)Cn2cnc3scc(-c4ccc(C)cc4)c3c2=O)sc(C)c1C,inconclusive: -42%
2,COCC(=O)Nc1cc(C(=O)NCC(C)C)ccc1Cl,inconclusive: -39.4%
3,O=C(O)c1ccn(Cn2cnc3ccccc32)n1,inactive: -22.8%
4,Fc1ccc(N/N=C/C=C/c2ccccc2)c(F)c1,inactive: -10.3%
5,CNc1nc(-c2ccc(Cl)cc2)cs1,inconclusive: -39%
6,Cc1ccc(NC(=O)/C=C/c2cccs2)c([N+](=O)[O-])c1,inactive: -25.9%
7,Cc1ccsc1C(=O)Nc1ccc(F)c([N+](=O)[O-])c1,active: -81%
8,S=c1[nH]nc(-c2ccncc2)n1Cc1ccco1,inactive: 23.2%
9,O=C1N=C(N2CCOCC2)S/C1=C\C=C/c1ccccc1,inconclusive: -53%
10,O=C(c1ccccc1F)N(Cc1ccc2c(c1)OCO2)Cc1cc2cc3c(cc2n2nnnc12)OCO3,inconclusive: -53.7%
11,COc1cc(/C=N\NC(=O)CNC(=O)c2cccc([N+](=O)[O-])c2)ccc1O,inconclusive: -44.3%
12,CCOC(=O)c1cnc(SC)nc1Nc1cccc(F)c1,inactive: 39.6%
13,Cc1ccc2nc(C)c(C(=O)N/N=C/c3cccs3)cc2c1,inconclusive: -76.1%
14,CCc1ccc(-c2cn(-c3nc(C)cc(C)n3)c(=N)o2)cc1,inconclusive: -40%
15,COc1ccccc1NC(=O)C1=C(C)Nc2ncnn2C1c1cccs1 (stereo not given),inconclusive: -60.1%
16,O=C1c2ccccc2C(=O)N1CCSc1ncn[nH]1,inactive: 10.7%
17,CC(C)(C)[C@]1(O)CCN2C[C@H]3c4ccccc4CCc4cccc(c43)[C@@H]2C1,inconclusive: -32.3%
18,CCOC(=O)c1sc2nc(CC(=O)OC)nc(N3CCN(c4ccccn4)CC3)c2c1C,inconclusive: -45.5%
19,Cc1ccc2cc(C(c3nnnn3C3CCCC3)N(Cc3cccnc3)Cc3ccco3)c(=O)[nH]c2c1 (stereo not given),inconclusive: -68.9%
20,C/C(CC(=O)NCc1ccco1)=N\NC(=O)C(c1ccccc1)c1ccccc1,inconclusive: -35.8%
21,Cc1c(NC(=O)CSc2nnnn2-c2ccc(O)cc2)c(=O)n(-c2ccccc2)n1C,inconclusive: -53.7%
22,Cc1cccc(Nc2ccccc2)c1,inconclusive: -34%
23,CCCCC(=O)Nc1ccc(NC(=S)NC(=O)CC(C)C)cc1OC,inactive: 22.9%

row,Structure (SMILES),"activity change (PNC), negative = inhibition"
1,CCOc1cccc(-c2nnc3sc(-c4ccco4)nn23)c1,inconclusive: -67.3%
2,Cn1cc([N+](=O)[O-])c(C(=O)Nc2ccn(Cc3c(F)c(F)cc(F)c3F)n2)n1,inconclusive: -76.1%
3,COc1ccc(/C=C2/CCc3ccccc3C2=O)cc1OC,inactive: -13.8%
4,O=c1[nH][nH]c(-c2ccccc2O)c1C(C[N+](=O)[O-])c1ccccc1 (stereo not given),inactive: -23.4%
5,O=C(O)C1C(c2ccccc2)C(C(=O)Oc2ccccc2)C1c1ccccc1 (stereo not given),inconclusive: -40.7%
6,COc1ccccc1OCCn1cc(C#N)c2ccccc21,active: -119%
7,c1ccc2cc(OCCN3CCCC3)ccc2c1,inactive: -15.5%
8,O=C(NC1CCN(Cc2ccccc2)CC1)C12CC3CC(CC(C3)C1)C2,inconclusive: -43%
9,Cc1ccc(S(=O)(=O)Nc2ccccc2F)cc1C(=O)NCCCN1CCCC1=O,inconclusive: -57.9%
10,CCc1ccc2nc(N3C(=O)C(O)=C(C(=O)c4ccco4)C3c3cccs3)sc2c1 (stereo not given),active: -100%
11,CC1(c2ccc(OC(F)F)cc2)NC(=O)N(CC(=O)Nc2ccc3c(c2)OCO3)C1=O (stereo not given),inconclusive: -55.9%
12,Cc1ccc(S(=O)(=O)Nc2cccc(NC(=O)CN3CCCCC3)c2)cc1,inactive: 35.2%
13,COc1ccccc1OC(C)C(=O)Nc1nc(-c2ccc(S(=O)(=O)N3CCOCC3)cc2)cs1 (stereo not given),inconclusive: -35.7%
14,Cc1cc(=O)[nH]c(-n2nc(C)c(Oc3ccccc3O)c2C)n1,inconclusive: -46.1%
15,O=C(Nc1ccccc1)N(Cc1ccccc1)C1=NCCS1,inconclusive: -31.3%
16,Cc1ccc(SCC(=O)NC(=O)NCc2ccco2)cc1C,inactive: 7.13%
17,O=c1[nH]c2ccc(Cl)cc2c(O)c1-c1ccccc1,inconclusive: -36.9%
18,Clc1cc(Br)ccc1OCCn1ccnc1,inconclusive: -72.2%
19,O=C(CSc1ccc(-c2cccs2)nn1)NCc1ccccc1Cl,inconclusive: -65.3%
20,O=C(Cn1cnc2c(cnn2-c2ccccc2)c1=O)NCCc1ccccc1,inconclusive: -35.3%
21,CC(C(=O)Oc1ccc2c(c1)OCO2)N1C(=O)c2ccccc2C1=O (stereo not given),inactive: 23.3%
